# Measurements reported in PubChem BioAssay AID1224830 (NIAID, 2016).
# Test: 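Regulators of TLR4 signalling towards TNF-alpha in macrophage-like cells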 (primary screen)
# System: human THP-1 monocytic leukaemia cells, TNF dual-luciferase reporter clone, PMA-differentiated to macrophage-like cells
# Knock-down reagent: siRNA pool against human genes, 50 nM
# Timing: LPS for 4 h, given about 3 days after siRNA transfection
# Conditions: bacterial LPS (TLR4 ligand), 10 ng/ml
# Measured: 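Ratio of firefly to renilla light, scaled to the plate median and expressed as a robust z-score per replicate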
# Reading the numbers: TNF reporter robust z-score: higher = stronger TNF reporter response to LPS
# Rule for the call: 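a well is active when its z-score exceeds 2.8 or falls below -1.5; control wells carry no call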
# Shown is one part, drawn at random, of about 18,000 deposited reagents. About 2,900 of them (16%) count as active. 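Calls are made per well; low scores hint the gene aids the LPS response, high scores that it dampens it.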 Repeated entries: four replicate wells of each siRNA pool.
target,TNF reporter robust z-score,Outcome
NPB,-0.73,inactive
NPB,0.09,inactive
NPB,-0.34,inactive
NPB,0.15,inactive
HMGA1,-1.27,inactive
HMGA1,0.33,inactive
HMGA1,0.52,inactive
HMGA1,-0.62,inactive
PICALM,0.49,inactive
PICALM,0.48,inactive
PICALM,0.79,inactive
TNFSF15,0.26,inactive
TNFSF15,0.9,inactive
TNFSF15,0.46,inactive
TNFSF15,-0.06,inactive
CRAT,-1.27,inactive
CRAT,-0.56,inactive
CRAT,-0.86,inactive
CRAT,0.04,inactive
MMP7,1.93,inactive
MMP7,2.03,inactive
MMP7,0.87,inactive
MMP7,3.57,active
TMC3,-1.23,inactive
TMC3,-1.37,inactive
TMC3,-1.32,inactive
TMC3,-0.34,inactive
PYM1,0.65,inactive
PYM1,1.3,inactive
PYM1,0.88,inactive
PYM1,1.15,inactive
NSUN6,-0.82,inactive
NSUN6,-0.12,inactive
NSUN6,-1.26,inactive
NSUN6,-1.08,inactive
ATXN7L2,0.33,inactive
ATXN7L2,0.39,inactive
ATXN7L2,0,inactive
ATXN7L2,0.21,inactive
SLC30A8,0.71,inactive
SLC30A8,1.17,inactive
SLC30A8,2.05,inactive
SLC30A8,2.57,inactive
ZBTB9,0.04,inactive
ZBTB9,2.81,active
ZBTB9,0.85,inactive
ZBTB9,2.86,active
OR52B4,0.15,inactive
OR52B4,0.31,inactive
OR52B4,-1.19,inactive
OR52B4,0.43,inactive

Reagents listed above marked active, once more:
target,TNF reporter robust z-score,Outcome
MMP7,3.57,active
ZBTB9,2.81,active
ZBTB9,2.86,active

The listing continues.
target,TNF reporter robust z-score,Outcome
YBX2,-0.61,inactive
YBX2,-0.56,inactive
YBX2,-0.36,inactive
YBX2,-0.53,inactive
RNF5,0.84,inactive
RNF5,0.75,inactive
RNF5,0.46,inactive
RNF5,-0.97,inactive
PPFIA4,0.97,inactive
PPFIA4,0.41,inactive
PPFIA4,-0.08,inactive
PPFIA4,1.21,inactive
TIGD5,-0.3,inactive
TIGD5,-0.5,inactive
TIGD5,-1.26,inactive
TIGD5,-0.79,inactive
S100A3,-1.28,inactive
S100A3,-0.63,inactive
S100A3,-0.7,inactive
S100A3,-0.62,inactive
MYLK2,-1.94,active
MYLK2,-0.4,inactive
MYLK2,-0.1,inactive
MYLK2,-1.26,inactive
MBD3L1,1.03,inactive
MBD3L1,0.42,inactive
MBD3L1,0.01,inactive
XRN1,-0.24,inactive
XRN1,0.18,inactive
XRN1,0.08,inactive
XRN1,-0.19,inactive
RABIF,1.47,inactive
RABIF,1.22,inactive
RABIF,1.96,inactive
RABIF,2.11,inactive
ANKRD34A,0.39,inactive
ANKRD34A,1.91,inactive
ANKRD34A,1.28,inactive
ANKRD34A,2.69,inactive
CKAP4,0.66,inactive
CKAP4,0.64,inactive
CKAP4,-1.13,inactive
CKAP4,-0.5,inactive
C16orf78,0.22,inactive
C16orf78,-0.12,inactive
C16orf78,1.02,inactive
C16orf78,0.52,inactive
PCM1,0.11,inactive
PCM1,0.54,inactive
PCM1,0.35,inactive
PCM1,0.62,inactive
VSIG8,1.06,inactive
VSIG8,0.78,inactive
VSIG8,0.17,inactive
VSIG8,-0.07,inactive
RBMY1D,0.06,inactive
RBMY1D,0.77,inactive
RBMY1D,1.07,inactive
RBMY1D,2.22,inactive
